This note sets out measurements from PubChem BioAssay AID1508600 (Functional Genomics Laboratory (NCATS/FGL), 2020).

The whole screen tested about 53,000 sequences, of which about 3,700 (7%) were called active.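 The calls were made as follows: active = gene knockdowns whose robust z-score for IL-1 alpha signal is at least 2 or at most -2, so actives lie on both sides; inactive = the rest.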 The list shows a part of the results.

The nature of this assay: Components of the Cytosolic LPS Sensing Pathway: Gene Identification via Genome-wide siRNA Screen.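 Also: robust z of the log signal after scaling to non-targeting control siRNA wells of the plate.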 The following applies: RAW264.7 macrophages, IL-1a HTRF, actives lie on both sides, screened at 100 nM (by protocol), cells primed 5 h with Pam3CSK4 first. Summed up:
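Using IL-1a HTRF as read-out, the screen measured release from RAW264.7 cells after 48h siRNA knockdown (100 nM), 5 h Pam3CSK4 priming and 24 h cytosolic LipidA. Values were expressed relative to negative-control wells as robust z-scores.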
(In general: Time-resolved FRET reads energy transfer from a long-lived donor to a nearby acceptor.)
On to GGGUUGAACCAUUGUUAAATT against Cyld, for which the z-score is inactive: 1.49.
Turning to GGGCUGACUGCUCACUUAATT against Pnp, the z-score was inactive: 0.504.
The value for GGAGUCAAAAGAAAAGAAGTT against Galm was inactive: 1.54; that for GGUCUGGAGACAAUCAUCATT against Rnf222 was active: -2.47; that for GGCAGCAAACCUUUGCUAUTT against Itfg2 was inactive: 1.39.
Take GGACCUGAACACAGCUACUTT against Stoml1: the z-score is inactive: 1.04.
On to UUCUAUGCCAUAUCCAUCATT against Olfr645, for which the z-score is inactive: 1.52.
As for GGUACUGCUGCUUCAGCAUTT against Pakap, the z-score was inactive: -0.831.
The value for GCAAGUAUAUUAGAUGAGCTT against Smtnl1 was inactive: -0.16.
The value for GGAAAAUGCCUCAAGACUUTT against Wdr5b was inactive: -0.0565.
For GGUUCAAUUCAAGUCUUUATT against Olfr195, the z-score is inactive: 0.339.
With GGUUACUAUGGAGACCUGGTT against Mia, the z-score is inactive: 0.429.
Take GGGAGGAUGCUGUUUCCAATT against Ssr3: the z-score is inactive: 0.683.
As to GGCACAGAAAACAGUCAAATT against Trmt1l, the z-score is inactive: 0.0602.
In the case of AGCAGAAAAAGGAAGGCCATT against Xlr3c, the z-score is inactive: 0.733.
Regarding CCACUUAUAUUUGAUCUCATT against Ift80, the z-score is inactive: 0.306.
With GGAAUGAGAUUUCUUCAUGTT against Itih2, the z-score is inactive: -0.384.
With GCCUUCAUUCUGGUAGCUATT against Olfr207 the figure was inactive: -1.14; with GGAAGACUCAGAGAUCCGATT against Atp13a1, inactive: -0.319; with CGGCUAUGUCCGUCAUUGGTT against Hypk, inactive: -0.268.
Take GGCAGCUGUAGAGGUGUUCTT against Haus7: the z-score is active: 2.36.
With GGCAUUCCUCUUGAAUAUUTT against Dck, the z-score was inactive: -0.805.
For the sequence GGAGGAUUUAAACCGGGAGTT against Ugt1a7c, the z-score is inactive: -0.0287.
On to GCGAUAUGCCCUAACUGGATT against Mmp24, for which the z-score was inactive: 0.967.
For GGUGCAAAGGCUCAAACAGTT against Rasd1, the z-score is inactive: -0.331.
GGAGUUAAACCACUCAAGATT against Ceacam11: the z-score was inactive: -0.262.
With GGAAUUGUCUAACAGGCUGTT against Hoxd12, the z-score is inactive: -0.025.
As for GGACAGAGUUCGAUCGACUTT against Gramd4, the z-score was inactive: 0.504.
For GCAGUUCUACGGACAUUUCTT against Pcdhb1, the z-score is inactive: 0.147.
With CCUGUUUAGCAUCUGGGAGTT against Gpr1 the figure was active: 6.24; with CGGUAUUUCGGCAUAAUAATT against Chek1, inactive: -1.26.
The value for GGUACCAACAAGAUGACUGTT against Irgm2 was inactive: 0.835; that for GGCUUUGAACAGGAAAGACTT against Ube2z was inactive: -0.417; that for GCUUUUUGAGUCUGAUUUATT against Dmgdh was inactive: 0.413.
In the case of GGGCAGUCCAGGAAGAUUGTT against Akap3, the z-score is inactive: -0.929.
Take CCUUUUUUGUCGUACGUUUTT against Prkx: the z-score was inactive: 0.149.
As for GGCAGCAUUUAUGGAGUACTT against Colgalt1, the z-score is inactive: -1.4.
With CCGUGAGAGUUUGGUGGUATT against Mcm2 the figure was inactive: -0.963; with “GCAAGAUUGGAAUGCUCCATT against 3830403N18Rik”, inactive: 0.309; with GCCUGAAUUUGUAAGCAGUTT against Fgf1, inactive: 0.0666.
With GGAAUAAGUCGGGCUAUCUTT against Dffb the figure was inactive: -0.582.
In the case of GGGCAAGUUUCAUGGAAAUTT against Stat4, the z-score was inactive: 0.103.
The value for GGAGAGCUAGCUUGACAUGTT against Tceanc2 was inactive: -0.397; that for CGACCCUACAGAGGACAUUTT against Pik3r6 was inactive: 0.135.
Take GGUACAUUGAGAACAACAGTT against Axin2: the z-score was inactive: -0.43.
With GGAUCAGUUGAUCUCAGUGTT against Olfr1406, the z-score was inactive: -0.52.
As for GCUAACAGUAUCCUUAUUUTT against Vmn1r53, the z-score was inactive: -0.436.
Take GGAAGCACUCAGUGCUCUGTT against Igfbp6: the z-score is active: 2.06.
For the sequence GCUUUGGUUGCUAACCCAATT against Slc45a2, the z-score is inactive: 0.407.
With GGGAUAUCGUUUGGUAUAGTT against Saa4 the figure was inactive: -0.677; with GGACAGCAAGAUGAAGAUGTT against Il17ra, inactive: -1.32; with CGAAGUUCCCUUUGAGUUUTT against Noa1, inactive: -0.305.
Regarding GCUAAGCUAGAACAUGAAUTT against Mapre1, the z-score is inactive: -0.932.
For the sequence GCAGAUUGGCGAUACCCUGTT against Alcam, the z-score was inactive: -1.57.
As to GGGCCAAUAAAGAGGACAGTT against Aanat, the z-score was active: 2.38.
Turning to GCUCCACUUUGGAGUUGGATT against Trub2, the z-score was inactive: 0.0788.
GGCAGCAGCAAGUUUCUUCTT against Rbm38: the z-score is active: -2.31.
As to GGAAUCACGUUCCAAACAUTT against Vmn1r51, the z-score was inactive: -1.35.
For the sequence GCUCGUUGUCUAGUUUGGGTT against Ube4b, the z-score is inactive: 1.32.
For the sequence GGAACUGCCCAGUUCUUAATT against Ppan, the z-score was inactive: 0.424.
Take GCAAACUCCAGCUCAACGATT against Galnt4: the z-score is inactive: -1.19.
As to GGCUCUAACAUGACAAUUUTT against Hyal1, the z-score was inactive: -0.251.
As for GGAAGGCCGAGAAGAAUUCTT against Kat8, the z-score is inactive: -0.133.
With GCUUCCAGACAAGCUUCGATT against Mthfd1l the figure was inactive: -1.01; with GGUCCUAAAGCCUUUUCUATT against Mrpl10, inactive: 0.199.
With GGUGGUUCACUGUAAGCCGTT against Spry4, the z-score was inactive: 1.04.
As for CCUGUUCAAAAGGUAUACATT against Fignl1, the z-score was inactive: -1.83.
Take GCUCAAAUCGUACAAGUGUTT against Panx1: the z-score was inactive: 0.214.
Consider GGGCAAAGAACUGAACGAATT against Pfdn2, for which the z-score was inactive: -1.03.
GGUGCCAUUCAUCUUUCAATT against Tmprss3: the z-score is inactive: 1.85.
GGCAGGCAAUUCAAACAAUTT against Orm1: the z-score was inactive: -1.24.
Take GGGUUUCCUGCCUGCUCAUTT against Litaf: the z-score was inactive: -0.361.
For the sequence CCAACAAAAAGAUUACAACTT against Akap7, the z-score was inactive: 0.77.
With CCAGUAUGCACAAAUUUAATT against Uba3, the z-score is inactive: -0.197.
As for GGCAUUAAACACUUGCCAGTT against Fshr, the z-score was inactive: -0.566.
As to GGCCUUAAGGUCCAUUAUCTT against Zfp954, the z-score was inactive: -0.854.
Regarding GUACUUUCUUGAACCAGAGTT against Cacng7, the z-score is inactive: -0.486.
Take GGCGGAAACUGAUCAGCUUTT against Fosb: the z-score is inactive: 0.234.
Consider GGAAGAGCUGGAGUCAGAUTT against Gemin8, for which the z-score was inactive: -0.051.
Turning to GGUACACUGAGUCUGGAAGTT against Lsm11, the z-score was inactive: -1.2.
With CCAUACAAAAAGCUUAGACTT against Slit2 the figure was inactive: -0.689.
As to GAAGAAACGGCACAGCAAGTT against Egr4, the z-score was inactive: -0.0816.
Consider CCGUGUUACUAUACUCUGUTT against Pabpn1, for which the z-score is inactive: -1.81.
Turning to GGAUGGGCCAUAUUGUCCUTT against Rita1, the z-score was inactive: -1.19.
For the sequence CGAUGCUAGAGAUUAAUCATT against Rdh10, the z-score was inactive: -0.0597.
The value for CCAAGCCGCUGAACAAUUUTT against Rnase6 was inactive: -0.468.
The value for CCGACGUGUUUGUUGUUGGTT against Gtf2i was inactive: -0.36; that for GGGACAUUGUGUUGGACGUTT against Srek1ip1 was inactive: 1.24; that for “CCCAAUAAAAUAUCACCAGTT against 1700074P13Rik” was inactive: -0.445.
For the sequence GGAGAAUGCAAACAUCUCUTT against Slfn2, the z-score was inactive: 0.424.
With GGAAAACCUAAUAAGGUUCTT against Iqce the figure was active: 2.72; with GCCUAACCAACAAUUCUACTT against Oas1b, inactive: 1.61; with GCACAAUGACGCACUUACCTT against Pik3r2, inactive: 0.693.
With GGAGUCAAAGCUCUUUAUUTT against Pitpnb the figure was inactive: 0.0674.
For the sequence GGAUAUGGAUAAAUGACAUTT against Sbno1, the z-score is inactive: -0.535.
Take GCACUGCUAUUUACAAAAATT against Tex16: the z-score is inactive: -1.73.
With GGCGACAUGUACAAUGACUTT against Mettl9 the figure was inactive: 0.721.
On to CAAGAUGAUUAUUAGAGAGTT against Gm5142, for which the z-score is inactive: -0.773.
The value for “GGACUCUUACCACAUAAUGTT against 1110059E24Rik” was inactive: -1.48.
Turning to GGAUAUAAACCUCAUCCAATT against Mrgpre, the z-score was inactive: 1.14.
The value for GGAGCUGAAGCCAUUCAACTT against Gpx6 was active: 2.08; that for CCUUAUGUCCCUAAGGCUATT against Mbd3 was inactive: -0.109; that for GCGGAAAUCUAAUUGCUUGTT against Kat5 was inactive: -0.0418.
On to GGGCGAUGGAAAGCCUUUUTT against Olfr354, for which the z-score is inactive: 0.301.
On to GAUGUGGGUUUUCUCUAACTT against Ly6g6c, for which the z-score is inactive: 0.602.
Turning to GCCAUUUAUCCGGUACGACTT against Actr3b, the z-score is inactive: 0.409.
With GGAGAUGGAUUCCAAGGUATT against Rnf40, the z-score is inactive: 0.378.
